Data reported in the supplement of paper PMC10849652.
The other results are listed elsewhere or left out.

The chains behind the UniProt entries cited, without tags or fusion partners. Where a name states a change or a piece, a line headed by the entry shows the natural chain unless it says otherwise.
UniProt Q9NPA8: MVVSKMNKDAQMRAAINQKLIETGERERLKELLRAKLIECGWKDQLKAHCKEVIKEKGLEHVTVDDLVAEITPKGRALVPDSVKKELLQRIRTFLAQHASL
UniProt O95834: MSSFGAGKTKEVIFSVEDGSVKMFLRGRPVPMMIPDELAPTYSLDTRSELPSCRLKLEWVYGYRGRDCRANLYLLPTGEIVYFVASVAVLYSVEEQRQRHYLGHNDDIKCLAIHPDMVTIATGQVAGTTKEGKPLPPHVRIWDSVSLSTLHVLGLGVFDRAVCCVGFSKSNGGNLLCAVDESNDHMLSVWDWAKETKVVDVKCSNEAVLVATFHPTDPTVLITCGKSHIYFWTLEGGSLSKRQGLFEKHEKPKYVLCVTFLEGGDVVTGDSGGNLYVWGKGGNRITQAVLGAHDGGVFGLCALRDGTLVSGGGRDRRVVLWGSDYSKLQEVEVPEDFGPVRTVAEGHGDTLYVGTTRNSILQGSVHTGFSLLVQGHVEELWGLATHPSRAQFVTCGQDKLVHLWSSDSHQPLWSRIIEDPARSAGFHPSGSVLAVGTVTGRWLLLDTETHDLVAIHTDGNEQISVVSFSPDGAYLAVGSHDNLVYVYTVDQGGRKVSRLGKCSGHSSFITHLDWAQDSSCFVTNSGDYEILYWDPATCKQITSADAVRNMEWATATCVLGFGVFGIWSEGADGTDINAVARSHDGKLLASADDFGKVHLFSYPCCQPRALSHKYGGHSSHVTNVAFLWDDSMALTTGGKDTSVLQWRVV
UniProt P60228, whole entry, looked up: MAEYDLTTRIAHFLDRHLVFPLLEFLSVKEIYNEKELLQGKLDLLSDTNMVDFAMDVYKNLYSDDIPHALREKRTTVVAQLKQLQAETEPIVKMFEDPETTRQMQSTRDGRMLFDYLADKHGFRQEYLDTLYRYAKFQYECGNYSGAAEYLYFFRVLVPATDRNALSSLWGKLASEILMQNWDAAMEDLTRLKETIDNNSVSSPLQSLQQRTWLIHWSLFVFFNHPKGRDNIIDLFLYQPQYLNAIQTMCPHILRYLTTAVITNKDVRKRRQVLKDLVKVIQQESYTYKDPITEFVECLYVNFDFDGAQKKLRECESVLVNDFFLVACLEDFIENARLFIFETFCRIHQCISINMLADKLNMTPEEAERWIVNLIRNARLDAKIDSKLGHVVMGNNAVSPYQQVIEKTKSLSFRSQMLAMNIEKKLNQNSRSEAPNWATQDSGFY
UniProt Q15717, whole entry, looked up: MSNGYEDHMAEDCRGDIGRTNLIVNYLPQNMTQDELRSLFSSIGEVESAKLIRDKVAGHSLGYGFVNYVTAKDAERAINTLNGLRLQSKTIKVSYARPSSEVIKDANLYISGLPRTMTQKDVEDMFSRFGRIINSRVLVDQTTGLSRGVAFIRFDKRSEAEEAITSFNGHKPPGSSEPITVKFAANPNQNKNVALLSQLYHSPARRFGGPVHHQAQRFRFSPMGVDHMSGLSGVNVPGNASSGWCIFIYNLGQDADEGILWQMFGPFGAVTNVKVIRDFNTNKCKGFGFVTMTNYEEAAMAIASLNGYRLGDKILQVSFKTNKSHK
UniProt Q13144, whole entry, looked up: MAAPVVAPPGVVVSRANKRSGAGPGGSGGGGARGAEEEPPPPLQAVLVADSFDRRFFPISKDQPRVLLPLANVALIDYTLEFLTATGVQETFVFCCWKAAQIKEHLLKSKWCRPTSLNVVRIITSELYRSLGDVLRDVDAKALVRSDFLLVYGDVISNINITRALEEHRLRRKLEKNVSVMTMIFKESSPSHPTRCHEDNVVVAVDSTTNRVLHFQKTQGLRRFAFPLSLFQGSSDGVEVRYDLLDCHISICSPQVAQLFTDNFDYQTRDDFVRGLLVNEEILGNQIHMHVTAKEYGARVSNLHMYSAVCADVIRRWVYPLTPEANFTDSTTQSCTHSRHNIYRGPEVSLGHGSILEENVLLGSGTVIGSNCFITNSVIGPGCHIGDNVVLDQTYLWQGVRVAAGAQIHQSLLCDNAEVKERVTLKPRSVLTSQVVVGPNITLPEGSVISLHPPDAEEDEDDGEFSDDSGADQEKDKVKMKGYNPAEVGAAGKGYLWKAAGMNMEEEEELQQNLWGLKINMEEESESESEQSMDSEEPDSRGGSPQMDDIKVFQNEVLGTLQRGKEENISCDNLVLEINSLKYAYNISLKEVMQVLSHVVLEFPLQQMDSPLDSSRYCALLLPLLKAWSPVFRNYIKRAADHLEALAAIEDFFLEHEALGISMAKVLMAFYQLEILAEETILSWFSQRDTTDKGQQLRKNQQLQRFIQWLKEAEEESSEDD
UniProt P28715: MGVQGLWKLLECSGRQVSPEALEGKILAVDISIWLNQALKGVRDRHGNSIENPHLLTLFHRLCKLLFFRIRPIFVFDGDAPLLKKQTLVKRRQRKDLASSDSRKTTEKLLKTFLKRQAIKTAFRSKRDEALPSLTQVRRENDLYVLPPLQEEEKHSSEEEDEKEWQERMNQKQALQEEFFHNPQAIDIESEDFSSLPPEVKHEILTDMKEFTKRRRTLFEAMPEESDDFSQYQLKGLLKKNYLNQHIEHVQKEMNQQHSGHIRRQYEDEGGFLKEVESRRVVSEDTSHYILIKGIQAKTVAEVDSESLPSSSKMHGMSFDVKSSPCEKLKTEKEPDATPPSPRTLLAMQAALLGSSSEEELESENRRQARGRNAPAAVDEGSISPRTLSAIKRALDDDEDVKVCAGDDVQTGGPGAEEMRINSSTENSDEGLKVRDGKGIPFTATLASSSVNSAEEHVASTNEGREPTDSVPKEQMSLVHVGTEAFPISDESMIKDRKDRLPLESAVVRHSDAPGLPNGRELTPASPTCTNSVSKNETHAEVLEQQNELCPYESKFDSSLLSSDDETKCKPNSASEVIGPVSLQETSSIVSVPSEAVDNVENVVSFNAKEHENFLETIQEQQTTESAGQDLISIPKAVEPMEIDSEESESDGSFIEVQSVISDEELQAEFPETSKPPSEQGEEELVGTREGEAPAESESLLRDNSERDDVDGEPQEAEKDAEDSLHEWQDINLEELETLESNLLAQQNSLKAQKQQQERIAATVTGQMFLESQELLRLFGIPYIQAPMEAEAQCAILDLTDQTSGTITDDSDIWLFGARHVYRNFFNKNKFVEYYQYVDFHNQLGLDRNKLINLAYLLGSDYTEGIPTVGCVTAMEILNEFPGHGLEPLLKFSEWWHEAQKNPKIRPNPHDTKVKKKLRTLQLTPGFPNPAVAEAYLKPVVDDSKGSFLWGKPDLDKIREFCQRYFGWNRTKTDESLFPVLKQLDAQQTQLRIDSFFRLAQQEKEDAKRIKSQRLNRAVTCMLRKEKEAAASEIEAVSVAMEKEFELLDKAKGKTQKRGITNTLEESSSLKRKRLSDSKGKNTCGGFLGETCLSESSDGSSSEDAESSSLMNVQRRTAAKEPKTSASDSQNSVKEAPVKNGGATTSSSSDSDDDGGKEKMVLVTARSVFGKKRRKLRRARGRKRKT
UniProt O94919: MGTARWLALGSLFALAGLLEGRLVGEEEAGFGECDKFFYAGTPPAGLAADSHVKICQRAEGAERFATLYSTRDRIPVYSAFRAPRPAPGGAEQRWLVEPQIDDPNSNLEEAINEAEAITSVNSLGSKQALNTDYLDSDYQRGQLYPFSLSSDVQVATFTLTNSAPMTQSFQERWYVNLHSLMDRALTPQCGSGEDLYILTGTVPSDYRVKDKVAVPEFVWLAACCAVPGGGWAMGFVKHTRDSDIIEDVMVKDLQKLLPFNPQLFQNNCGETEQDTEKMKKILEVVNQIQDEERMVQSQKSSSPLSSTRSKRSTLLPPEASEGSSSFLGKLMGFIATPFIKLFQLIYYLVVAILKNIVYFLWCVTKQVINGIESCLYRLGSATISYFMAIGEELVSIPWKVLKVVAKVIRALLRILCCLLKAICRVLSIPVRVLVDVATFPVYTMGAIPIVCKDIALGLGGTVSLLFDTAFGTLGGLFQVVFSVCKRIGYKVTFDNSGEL
UniProt O15371, whole entry, looked up: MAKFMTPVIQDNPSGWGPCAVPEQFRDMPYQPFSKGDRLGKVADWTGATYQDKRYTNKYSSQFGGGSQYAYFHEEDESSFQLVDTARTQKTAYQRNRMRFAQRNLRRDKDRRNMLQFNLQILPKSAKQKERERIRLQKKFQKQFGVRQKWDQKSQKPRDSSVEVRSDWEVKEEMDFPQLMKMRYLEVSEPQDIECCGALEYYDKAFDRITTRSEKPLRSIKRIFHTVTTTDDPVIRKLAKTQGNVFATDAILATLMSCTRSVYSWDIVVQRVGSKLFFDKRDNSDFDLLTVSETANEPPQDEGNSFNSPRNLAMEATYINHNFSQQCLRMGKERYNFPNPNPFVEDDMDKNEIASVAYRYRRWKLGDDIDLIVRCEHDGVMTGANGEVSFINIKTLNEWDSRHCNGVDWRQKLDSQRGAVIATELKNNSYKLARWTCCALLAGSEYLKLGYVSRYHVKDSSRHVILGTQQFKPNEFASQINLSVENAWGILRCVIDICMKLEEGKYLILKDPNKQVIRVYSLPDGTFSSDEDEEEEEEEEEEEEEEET
UniProt Q96RQ1: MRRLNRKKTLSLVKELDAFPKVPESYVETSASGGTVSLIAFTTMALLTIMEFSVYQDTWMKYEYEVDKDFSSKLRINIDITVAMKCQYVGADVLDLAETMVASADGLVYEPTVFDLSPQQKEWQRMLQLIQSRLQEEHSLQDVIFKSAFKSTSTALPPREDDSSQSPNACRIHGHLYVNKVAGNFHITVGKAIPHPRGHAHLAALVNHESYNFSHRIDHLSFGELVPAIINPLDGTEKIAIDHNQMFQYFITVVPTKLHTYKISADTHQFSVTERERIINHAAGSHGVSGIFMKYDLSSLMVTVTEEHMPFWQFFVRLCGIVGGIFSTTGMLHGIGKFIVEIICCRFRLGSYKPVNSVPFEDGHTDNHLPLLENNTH
UniProt P84090, whole entry, looked up: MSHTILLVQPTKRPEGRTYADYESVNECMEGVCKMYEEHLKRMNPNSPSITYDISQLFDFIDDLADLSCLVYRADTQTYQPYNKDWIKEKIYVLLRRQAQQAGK
UniProt Q13347, whole entry, looked up: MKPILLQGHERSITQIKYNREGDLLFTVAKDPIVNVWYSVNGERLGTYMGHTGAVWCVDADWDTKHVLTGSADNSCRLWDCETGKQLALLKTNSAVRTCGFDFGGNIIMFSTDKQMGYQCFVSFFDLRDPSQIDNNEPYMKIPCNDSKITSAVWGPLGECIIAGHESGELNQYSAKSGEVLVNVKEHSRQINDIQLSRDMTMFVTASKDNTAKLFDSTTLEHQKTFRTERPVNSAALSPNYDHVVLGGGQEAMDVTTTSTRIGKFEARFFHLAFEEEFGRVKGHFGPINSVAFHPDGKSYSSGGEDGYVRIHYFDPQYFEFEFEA
UniProt Q9BQI3, whole entry, looked up: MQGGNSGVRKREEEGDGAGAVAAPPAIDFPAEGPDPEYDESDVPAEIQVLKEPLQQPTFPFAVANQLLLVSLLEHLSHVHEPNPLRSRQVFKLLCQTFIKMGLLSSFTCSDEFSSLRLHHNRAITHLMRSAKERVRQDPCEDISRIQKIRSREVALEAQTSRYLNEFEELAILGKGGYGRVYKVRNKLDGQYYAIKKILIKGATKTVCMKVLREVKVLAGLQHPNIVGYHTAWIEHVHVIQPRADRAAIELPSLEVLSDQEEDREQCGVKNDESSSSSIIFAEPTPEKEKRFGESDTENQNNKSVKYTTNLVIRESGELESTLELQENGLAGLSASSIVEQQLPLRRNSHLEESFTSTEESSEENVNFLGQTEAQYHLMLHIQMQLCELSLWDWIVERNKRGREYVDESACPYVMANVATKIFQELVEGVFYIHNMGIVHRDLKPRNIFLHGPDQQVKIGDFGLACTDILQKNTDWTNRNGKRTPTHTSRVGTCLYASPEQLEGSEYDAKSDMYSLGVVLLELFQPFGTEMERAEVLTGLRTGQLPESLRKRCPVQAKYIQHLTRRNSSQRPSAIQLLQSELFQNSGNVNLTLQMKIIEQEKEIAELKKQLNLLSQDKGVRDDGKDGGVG
UniProt P19525: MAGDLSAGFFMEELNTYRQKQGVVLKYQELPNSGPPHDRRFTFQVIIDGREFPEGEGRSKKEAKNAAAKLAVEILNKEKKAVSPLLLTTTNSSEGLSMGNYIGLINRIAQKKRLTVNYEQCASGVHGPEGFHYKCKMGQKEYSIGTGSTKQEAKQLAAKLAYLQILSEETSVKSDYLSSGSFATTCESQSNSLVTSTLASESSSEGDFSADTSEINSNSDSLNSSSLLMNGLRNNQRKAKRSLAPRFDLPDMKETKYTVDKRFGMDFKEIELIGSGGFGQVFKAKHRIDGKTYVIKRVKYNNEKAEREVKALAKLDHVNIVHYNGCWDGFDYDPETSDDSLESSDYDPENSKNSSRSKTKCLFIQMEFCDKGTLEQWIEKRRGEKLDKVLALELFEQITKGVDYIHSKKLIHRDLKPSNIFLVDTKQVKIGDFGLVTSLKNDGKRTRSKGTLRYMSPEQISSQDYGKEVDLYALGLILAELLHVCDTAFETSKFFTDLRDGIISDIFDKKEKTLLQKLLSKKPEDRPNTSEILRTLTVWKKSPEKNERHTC

What was measured:
Test in all cases: log2 fold change, soluble protein after heating vs DMSO (PISA); higher = thermal stabilisation; K562 lysate, 10 uM; active = over 0.2 and 3.5 SD of the protein, either way, in both replicates (recomputed)
lapatinib = compound: CS(=O)(=O)CCNCc1ccc(-c2ccc3ncnc(Nc4ccc(OCc5cccc(F)c5)c(Cl)c4)c3c2)o1 [lapatinib]
Procedure, shortened: (§1)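 Quantification was by TMTpro 16plex LC-MS/MS with equalised channel sums, applied to the supernatant after 21,000xg for 90 min. Samples were crude K562 extract at 1 mg/mL protein in PBS pH 7.4 with 1 mM MgCl2, treated with 10 μM compound for 30 min, heated for 3 min across 48°C-58°C, pooled and brought to 0.5% NP-40 at 4°C. Values are log-two fold changes in thermal stability relative to solvent controls, from duplicates.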

pictilisib = compound: CS(=O)(=O)N1CCN(Cc2cc3nc(-c4cccc5[nH]ncc45)nc(N4CCOCC4)c3s2)CC1 [pictilisib]
Procedure, shortened: as §1

crizotinib = compound: C[C@@H](Oc1cc(-c2cnn(C3CCNCC3)c2)cnc1N)c1c(Cl)ccc(F)c1Cl [crizotinib]
Procedure, shortened: as §1

[1] = compound: C[C@H](C1=CC=C(C=C1)C(=O)NC2=C3C=CNC3=NC=C2)N
Procedure, shortened: as §1

duvelisib = compound: C[C@H](Nc1ncnc2nc[nH]c12)c1cc2cccc(Cl)c2c(=O)n1-c1ccccc1 [duvelisib]
Procedure, shortened: as §1

gandotinib = compound: Cc1cc(Nc2cc(CN3CCOCC3)c3nc(C)c(Cc4ccc(Cl)cc4F)n3n2)n[nH]1 [gandotinib]
Procedure, shortened: as §1

tozasertib = compound: Cc1cc(Nc2cc(N3CCN(C)CC3)nc(Sc3ccc(NC(=O)C4CC4)cc3)n2)n[nH]1 [tozasertib]
Procedure, shortened: as §1

doramapimod = compound: Cc1ccc(-n2nc(C(C)(C)C)cc2NC(=O)Nc2ccc(OCCN3CCOCC3)c3ccccc23)cc1 [doramapimod]
Procedure, shortened: as §1

bafetinib = compound: Cc1ccc(NC(=O)c2ccc(CN3CC[C@H](N(C)C)C3)c(C(F)(F)F)c2)cc1Nc1nccc(-c2cncnc2)n1 [bafetinib]
Procedure, shortened: as §1

[2] = compound: Cc1cccc(CC(=O)N2CCc3c2ccc(-c2cn(C)c4ncnc(N)c24)c3F)n1
Procedure, shortened: as §1

nilotinib = compound: Cc1cn(-c2cc(NC(=O)c3ccc(C)c(Nc4nccc(-c5cccnc5)n4)c3)cc(C(F)(F)F)c2)cn1 [nilotinib]
Procedure, shortened: as §1

[3] = compound: Cc1nc(Nc2n[nH]c3c2CN(C(=O)N[C@H](CN(C)C)c2ccccc2)C3(C)C)c2sccc2n1
Procedure, shortened: as §1

dasatinib = compound: Cc1nc(Nc2ncc(C(=O)Nc3c(C)cccc3Cl)s2)cc(N2CCN(CCO)CC2)n1 [dasatinib]
Procedure, shortened: as §1

[4] = compound: Cc1ncc(-c2ccnc(Nc3ccc(S(C)(=O)=O)cc3)n2)n1C(C)C
Procedure, shortened: as §1

[5] = compound: Cn1cc(-c2ccc3c(c2)CCN3C(=O)Cc2cccc(C(F)(F)F)c2)c2c(N)ncnc21
Procedure, shortened: as §1

quisinostat = compound: Cn1cc(CNCC2CCN(c3ncc(C(=O)NO)cn3)CC2)c2ccccc21 [quisinostat]
Procedure, shortened: as §1

tipifarnib = compound: Cn1cncc1[C@@](N)(c1ccc(Cl)cc1)c1ccc2c(c1)c(-c1cccc(Cl)c1)cc(=O)n2C [tipifarnib]
Procedure, shortened: as §1

[6] = compound: NC(=O)Nc1cc(-c2cccc(F)c2)sc1C(=O)N[C@H]1CCCNC1
Procedure, shortened: as §1

[7] = compound: NC(=O)c1cnc(N[C@@H]2CCCC[C@@H]2N)nc1Nc1cccc(-n2nccn2)c1
Procedure, shortened: as §1

[8] = compound: NC1(c2ccc(-c3nc4ccn5c(=O)[nH]nc5c4cc3-c3ccccc3)cc2)CCC1
Procedure, shortened: as §1

Measured: log2 fold change

ENY2 (UniProt Q9NPA8)
active: [1] 0.726 | gandotinib -0.386 | [2] -0.529
inactive: lapatinib 0.025 | pictilisib -0.024 | crizotinib 0.031 | duvelisib 0.034 | tozasertib 0.019 | doramapimod -0.021 | bafetinib -0.07 | nilotinib -0.054 | [3] -0.002 | dasatinib 0.045 | [4] 0.007 | [5] 0.033 | quisinostat -0.03 | tipifarnib 0.085 | [6] -0.03 | [7] -0.022 | [8] -0.007

EML2 isoform 3 (UniProt O95834)
inactive: lapatinib -0.017 | pictilisib -0.027 | crizotinib 0.023 | [1] 0.098 | duvelisib 0.007 | gandotinib -0.079 | tozasertib 0.01 | doramapimod 0.006 | bafetinib -0.032 | [2] -0.066 | nilotinib -0.011 | [3] 0.02 | dasatinib -0.024 | [4] 0.006 | [5] 0.028 | quisinostat 0.081 | tipifarnib 0.005 | [6] -0.013 | [7] -0.008 | [8] -0.003

EIF3E (UniProt P60228)
inactive: lapatinib -0.007 | pictilisib -0.035 | crizotinib -0.064 | [1] 0.007 | duvelisib 0.028 | gandotinib -0.078 | tozasertib -0.01 | doramapimod 0.102 | bafetinib -0.058 | [2] 0.05 | nilotinib -0.013 | [3] 0.013 | dasatinib -0.029 | [4] -0.041 | [5] 0.044 | quisinostat -0.034 | tipifarnib -0.006 | [6] 0.046 | [7] 0.022 | [8] -0.044

EIF3L (UniProt Q9Y262)
inactive: lapatinib -0.01 | pictilisib 0.002 | crizotinib -0.019 | [1] -0.015 | duvelisib -0.009 | gandotinib -0.025 | tozasertib 0.012 | doramapimod 0.003 | bafetinib 0.009 | [2] -0.012 | nilotinib -0.019 | [3] -0.016 | dasatinib 0.013 | [4] 0.01 | [5] 0.008 | quisinostat 0 | tipifarnib 0.015 | [6] 0.015 | [7] -0.003 | [8] -0.027

ELAVL1 isoform 2 (UniProt Q15717)
inactive: lapatinib 0.031 | pictilisib -0.002 | crizotinib -0.037 | [1] 0.055 | duvelisib 0.001 | gandotinib -0.067 | tozasertib -0.047 | doramapimod 0.007 | bafetinib -0.004 | [2] -0.026 | nilotinib -0.035 | [3] -0.014 | dasatinib -0.029 | [4] -0.009 | [5] 0.037 | quisinostat -0.079 | tipifarnib 0.003 | [6] 0.034 | [7] 0.008 | [8] 0.03

ENGASE (UniProt Q8NFI3)
inactive: lapatinib -0.02 | pictilisib 0 | crizotinib 0.011 | [1] -0.048 | duvelisib -0.025 | gandotinib 0.116 | tozasertib 0.051 | doramapimod 0.033 | bafetinib 0.003 | [2] 0.148 | nilotinib 0.02 | [3] -0.083 | dasatinib 0.029 | [4] -0.034 | [5] 0.028 | quisinostat 0.009 | tipifarnib 0.043 | [6] -0.04 | [7] 0.011 | [8] -0.025

EPG5 (UniProt Q9HCE0)
inactive: lapatinib 0.025 | pictilisib 0.12 | crizotinib -0.05 | [1] 0.075 | duvelisib 0.054 | gandotinib -0.093 | tozasertib -0.065 | doramapimod -0.109 | bafetinib -0.054 | [2] -0.041 | nilotinib 0.038 | [3] -0.116 | dasatinib -0.038 | [4] -0.324 | [5] 0.209 | quisinostat 0.117 | tipifarnib 0.062 | [6] 0.086 | [7] -0.018 | [8] 0.257

EIF2B5 (UniProt Q13144)
inactive: lapatinib -0.01 | pictilisib -0.012 | crizotinib -0.009 | [1] -0.005 | duvelisib 0.001 | gandotinib -0.119 | tozasertib -0.019 | doramapimod 0.003 | bafetinib -0.033 | [2] 0.006 | nilotinib -0.004 | [3] 0.037 | dasatinib -0.015 | [4] 0.008 | [5] 0.01 | quisinostat -0.002 | tipifarnib -0.006 | [6] 0.038 | [7] -0.01 | [8] -0.011

ERCC5 (UniProt P28715)
inactive: lapatinib 0.005 | pictilisib -0.034 | crizotinib -0.003 | [1] -0.018 | duvelisib 0.009 | gandotinib 0.038 | tozasertib -0.033 | doramapimod -0.027 | bafetinib -0.068 | [2] 0.005 | nilotinib -0.002 | [3] -0.054 | dasatinib 0.044 | [4] 0.011 | [5] 0.031 | quisinostat 0.029 | tipifarnib -0.027 | [6] 0.023 | [7] 0.001 | [8] -0.028

ENDOD1 (UniProt O94919)
inactive: lapatinib 0.002 | pictilisib -0.05 | crizotinib 0.082 | [1] 0.101 | duvelisib -0.081 | gandotinib -0.08 | tozasertib 0.023 | doramapimod -0.01 | bafetinib 0.011 | [2] -0.055 | nilotinib 0.108 | [3] 0.048 | dasatinib 0.015 | [4] -0.034 | [5] 0.025 | quisinostat 0.13 | tipifarnib -0.105 | [6] 0.021 | [7] -0.006 | [8] -0.03

EIF3D (UniProt O15371)
inactive: lapatinib -0.011 | pictilisib 0.018 | crizotinib -0.046 | [1] -0.042 | duvelisib 0.002 | gandotinib -0.024 | tozasertib 0.02 | doramapimod 0.034 | bafetinib -0.053 | [2] 0.065 | nilotinib 0.015 | [3] 0.002 | dasatinib -0.017 | [4] -0.013 | [5] 0.05 | quisinostat 0.033 | tipifarnib 0.01 | [6] 0.034 | [7] -0.004 | [8] -0.036

ERGIC2 (UniProt Q96RQ1)
inactive: lapatinib -0.05 | pictilisib -0.031 | crizotinib -0.015 | [1] 0.074 | duvelisib -0.038 | gandotinib -0.132 | tozasertib 0.028 | doramapimod 0.018 | bafetinib -0.078 | [2] 0.012 | nilotinib 0.007 | [3] -0.033 | dasatinib 0.131 | [4] 0.019 | [5] 0.06 | quisinostat 0.046 | tipifarnib -0.021 | [6] 0.083 | [7] 0.043 | [8] 0

ERH (UniProt P84090)
inactive: lapatinib 0.027 | pictilisib -0.04 | crizotinib 0.056 | [1] -0.003 | duvelisib 0.01 | gandotinib 0.019 | tozasertib 0.037 | doramapimod -0.049 | bafetinib 0.033 | [2] -0.037 | nilotinib 0.009 | [3] -0.022 | dasatinib 0.033 | [4] -0.017 | [5] 0.047 | quisinostat -0.007 | tipifarnib 0.018 | [6] -0.067 | [7] -0.005 | [8] 0.029

EIF3I (UniProt Q13347)
inactive: lapatinib -0.009 | pictilisib -0.015 | crizotinib -0.004 | [1] -0.003 | duvelisib -0.009 | gandotinib -0.022 | tozasertib 0.008 | doramapimod 0.029 | bafetinib -0.052 | [2] 0.01 | nilotinib 0.022 | [3] -0.004 | dasatinib -0.018 | [4] 0.013 | [5] 0.044 | quisinostat -0.009 | tipifarnib 0.018 | [6] 0.036 | [7] 0 | [8] -0.013

EIF2AK1 (UniProt Q9BQI3)
inactive: lapatinib 0.142 | pictilisib -0.022 | crizotinib -0.036 | [1] -0.033 | duvelisib 0.06 | gandotinib -0.009 | tozasertib -0.009 | doramapimod 0.017 | bafetinib -0.068 | [2] 0.062 | nilotinib -0.006 | [3] 0.211 | dasatinib -0.027 | [4] -0.154 | [5] 0.078 | quisinostat -0.077 | tipifarnib 0.007 | [6] -0.031 | [7] 0.062 | [8] 0.021

EIF2AK2 (UniProt P19525)
inactive: lapatinib -0.003 | pictilisib 0.03 | crizotinib 0.12 | [1] -0.061 | duvelisib -0.036 | gandotinib -0.022 | tozasertib -0.009 | doramapimod 0.011 | bafetinib -0.036 | [2] 0.022 | nilotinib -0.014 | [3] 0.043 | dasatinib 0.122 | [4] 0.01 | [5] 0.056 | quisinostat -0.087 | tipifarnib -0.032 | [6] 0.045 | [7] -0.013 | [8] -0.054
